Results of single-concentration screens

Data taken from ChEMBL document CHEMBL3988442, “University of Dundee, Small-Polar-MMV Screening Library” (2021).

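Assay of Toxoplasma gondii numbers, read through their beta-galactosidase reporter with a colour substrate. Tested at 10 µM. Higher reads as fewer parasites (inferred from which compounds were picked for retests). Of about 67,000 compounds tested this way, about 260 (0.38%) reached 50% or more in at least one test.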

Each number is a percent effect as filed.
How 0% and 100% were set is not recorded. Most values in the screen are low, and negative values occur.
Compounds were drawn at random from those tested, without regard to their results.

compound	Percent Effect
CN(C)c1cc2c(nn1)CCN(C(=O)c1cc3ccccc3o1)C2	-9.004
CNC(=O)c1cccc(CC2COCCN(Cc3ccc(C)o3)C2)n1 (stereo not given)	-2.713
CC(C)c1cc(NC(=O)c2cccnc2)[nH]n1	41.77
Cc1nnc2n1CCN(C(=O)C1CCC(n3cccc3)CC1)C2 (stereo not given)	-9.243
CN1CCCCC1CC(=O)Nc1ccc2ncn(C)c2c1 (stereo not given)	12.19
O=S(=O)(CCN1CCCC1Cn1cccn1)c1ccccc1 (stereo not given)	-5.93
COc1cccc(C(=O)N2CCCC2c2ncc3c(n2)CCN(C)C3)c1 (stereo not given)	3.074
CC(c1ccc(C(=O)NCCc2nc(N)cc(O)n2)o1)N1CCCCC1 (stereo not given)	11.38
CC(C)NC[C@@]1(COc2ccccc2)C[C@@H](O)[C@@H](O)C1.Cl	15.32
CCn1ncc2c1C(COCC1CC1)CN(C(=O)c1cccs1)C2 (stereo not given)	-2.752
O=C(c1cnn2c(-c3ccco3)ccnc12)N1CCCCCC1	-1.546
Cl.NCC(=O)N1CCC(c2ccnc(Nc3cc(C(F)(F)F)ccn3)n2)C1 (stereo not given)	14.15
CCN1CC2(CCC1=O)CCN(Cc1cscn1)CC2	-5.09
CC(C)N1CCC(C(=O)NC[C@H]2CCc3ccccc3O2)CC1	-10.92
CC(C)CNC(=O)CSc1nnc(OC(C)C)s1	-7.633
O=C(CCc1ccc2c(c1)OCO2)N1CCCCC1Cn1cccn1 (stereo not given)	-5.121
Cc1cccc(N(C)Cc2cc(=O)n3oc(C)cc3n2)c1	12.12
COC(=O)C1=NN2C(=NS(=O)(=O)c3ccccc32)N1	13.28
COc1ccccc1CNC(=O)C(C)n1cc2c(n1)c(C)nn2C (stereo not given)	-4.242
Cc1cnn(CCNCc2cccc(C#N)c2)c1	16.19
c1ccc(Cc2noc(CN3CCc4cncnc4C3)n2)cc1	-10.01
O=C(Nc1cccs1)N1CC(c2nc(C3CC3)no2)C1	2.317
CC1CN(C(=O)c2cc[nH]c(=O)c2)c2ccccc21 (stereo not given)	0.9029
O=C(O)C(F)(F)F.[H][C@]12CCN(S(=O)(=O)C3CC3)CC[C@@]1([H])S(=O)(=O)CCN2CC(C)C	12.28
O=C(C1CCC1)N1CCCC(c2ccnc(Nc3cnccn3)n2)C1 (stereo not given)	-6.567
CC(=O)NC1CCN(c2ccnc(C3CCNCC3)c2)CC1.O=C(O)C(F)(F)F	-1.972
CN(C)C(=O)Cc1nc(CN2CCCC2Cn2cccn2)cs1 (stereo not given)	8.583
CCN(CC)C(=O)NCCc1ccn(-c2ccccc2)n1	9.716
Cn1cc(C[C@H]2[C@H](N3CCOCC3)CCN2C(=O)c2ccc[nH]2)cn1	21.96
CCOc1ccc(N2CCCN=C2NC(=O)c2cccc(OC)c2)cc1	7.879
CCS(=O)(=O)N1CCC(OCCCc2ccccc2)C1 (stereo not given)	0.3157
Cc1cc(C)n(CCCNc2ncnc3c2NC(=O)CN3)n1	-23.38
Cc1cc(CN(C)CCC(O)c2ccccc2)nn1C (stereo not given)	10.3
CCc1nc(C)sc1CN1CCc2[nH]nc(-c3ccc(F)c(F)c3)c2C1	1.973
Cn1ncc2c(NCC3CCS(=O)(=O)C3)nc(C3CCCC3)nc21 (stereo not given)	-0.7299
Cc1nnc(CN2CCN(C)C3(CCC(=O)N(CCO)CC3)C2)s1 (stereo not given)	-2.391
OCC1COCCN(Cc2cc(C3CCCCC3)no2)C1 (stereo not given)	10.74
CC(C)(C)NC(=O)c1nn(C2CCS(=O)(=O)C2)c2c1CCCC2 (stereo not given)	-23.05
Cc1ccnn1CCC(=O)N1C[C@@H](O)[C@H](Oc2cccc(F)c2)C1	-36.1
CCC[C@@H]1CN(C(=O)c2cc(-c3cccs3)n(C)n2)C[C@H]1NS(C)(=O)=O	7.447
[H][C@@]12CCN(CC3CCOCC3)[C@@]1([H])CCN2C(=O)c1ccc(C)nc1	-14.82
Cn1cc(N2CCCC(SCc3ccco3)C2=O)cn1 (stereo not given)	1.529
Cn1ncc2c1C(COCC1CC1)CN(S(=O)(=O)C1CC1)C2 (stereo not given)	20.01
Cn1ccnc1CN1CCC(c2ccnc(-c3cccc(O)c3)c2)C1 (stereo not given)	55.29
O=C(O)C(F)(F)F.O=C(O)C(F)(F)F.[H][C@@]12CN(Cc3cccs3)C[C@@]1([H])N(Cc1ccncc1)C(=O)CO2	-8.12
CC(C)(C)CCNc1nccc(-c2c[nH][nH]c2=O)n1	11.13
N#CC1(NC(=O)c2c(F)ccc(OC(F)F)c2F)CCOCC1	-2.869
O=C(C1CCCO1)N1CCC(c2nc(-c3ccccc3)n[nH]2)CC1 (stereo not given)	10.63
CC(C)OCCCNC(=O)c1ccc(-c2ccco2)[nH]c1=O	4.078
COCCC(=O)NCC1COc2cc(OC)ccc2C1 (stereo not given)	-24.62
COCC(=O)N1CCC2(CC1)COCCN2CCN(C)C.O=C(O)C(F)(F)F.O=C(O)C(F)(F)F	1.068
[H][C@@]12CNC[C@]1(C(=O)O)CN(C(=O)Nc1ccccc1-c1ccccc1)C2	5.047
CCc1noc(Cn2c(=O)c3c(C(F)(F)F)cc(C)nc3n2C)n1	11.49
CC(C)n1cc(N2CC(C(=O)N3CCCC3)CC2=O)cn1 (stereo not given)	28.37
O=C1CCC(=O)c2oc3ccc(Cl)cc3c2N1	-9.703
COc1ccccc1C(=O)NC[C@H]1COCc2nc3c(C)cccc3n21	9.518
COc1ccc(Br)cc1NCC(=O)NC(C)(C#N)C1CC1 (stereo not given)	-3.02
O=C(CSc1ccccc1F)NS(=O)(=O)c1ccc2c(c1)OCCO2	6.055
[H][C@]12CC[C@]([H])(CN(CC(=O)N(C)C)C1)N(Cc1cc(F)ccc1F)C2	11.95
Cn1c(=O)oc2ccc(NC(=O)N3CCSCC3)cc21	-2.256
CCN1CCCN(c2ncccc2C(=O)N2CCCCC2)CC1	9.599
CCN1CC2(CC1=O)CN(Cc1ccco1)CCN(C(=O)C(C)C)C2.O=C(O)C(F)(F)F (stereo not given)	-13.42
CN(C)c1ccccc1C(=O)N1CCCC(c2ccc(C(=O)O)cc2)C1 (stereo not given)	11.69
CSc1ccc(-c2nc(CN3CCC(NC(C)=O)CC3)c(C)o2)cc1	0.4489
COc1ccc(-c2csc3c2c(N)nc(=O)n3CCCN(C)C)cc1	7.805
CCNc1cc2c(nn1)CCN(C(=O)C(C)c1c(C)noc1C)C2 (stereo not given)	-26.32
Cn1cccc(NC(=O)N2CCC(COCc3ccccc3)C2)c1=O (stereo not given)	-0.6952
O=C(Cc1cccc(O)c1)N1CCC2(CC1)c1ccccc1CC2O (stereo not given)	-16.14
O=C(Cn1ccc2ccc(Cl)cc21)NCc1ccc(C(=O)O)cc1	4.87
O=C1CC(c2ccc3c(c2)OCO3)c2cn[nH]c2N1 (stereo not given)	-2.814
O=C(NCCCn1cccn1)C1CCC(=O)N(CC2CCCCC2)C1 (stereo not given)	-7.38
COc1ccc(OCc2nccc(-c3cc(C(=O)O)ccn3)n2)cc1	22.33

The first 5 entries again:

compound,Percent Effect
CN(C)c1cc2c(nn1)CCN(C(=O)c1cc3ccccc3o1)C2,-9.004
CNC(=O)c1cccc(CC2COCCN(Cc3ccc(C)o3)C2)n1 (stereo not given),-2.713
CC(C)c1cc(NC(=O)c2cccnc2)[nH]n1,41.77
Cc1nnc2n1CCN(C(=O)C1CCC(n3cccc3)CC1)C2 (stereo not given),-9.243
CN1CCCCC1CC(=O)Nc1ccc2ncn(C)c2c1 (stereo not given),12.19